Reference: article PMC12582121

By UniProt entry, the sequences of proteins in these tests, tags left out. Where a name states a change or a piece, a line headed by the entry shows the natural chain unless it says otherwise.
UniProt P04406: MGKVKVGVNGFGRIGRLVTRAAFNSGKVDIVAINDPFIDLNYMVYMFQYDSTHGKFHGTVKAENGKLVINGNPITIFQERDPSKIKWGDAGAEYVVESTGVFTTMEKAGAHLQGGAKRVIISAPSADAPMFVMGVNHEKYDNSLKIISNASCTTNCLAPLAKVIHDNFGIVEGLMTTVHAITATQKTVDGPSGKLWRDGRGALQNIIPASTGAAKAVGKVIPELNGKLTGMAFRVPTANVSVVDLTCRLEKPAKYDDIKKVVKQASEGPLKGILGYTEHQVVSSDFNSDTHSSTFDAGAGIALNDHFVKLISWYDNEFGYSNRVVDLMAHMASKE

How the values were obtained:
GAPDH (Homo sapiens) [1] = molecular target: GAPDH (Homo sapiens) (UniProt P04406); test: fluorescence polarization, competition; conditions: 300 µM heptelidic acid; 10 mM Tris-HCl pH 8.0, 50 mM KCl, 2 mM DTT, 0.5 mM EDTA, 0.1 mg/ml BSA, 0.1 mg/ml heparin, room temperature; FP 30 min with 2 nM RNA; recombinant protein; protein details: N-terminal His
GAPDH (Homo sapiens) [2] = molecular target: GAPDH (Homo sapiens) (UniProt P04406); test: mass photometry; conditions: minor mass shift, no heparin or BSA in buffer; 10 mM Tris-HCl pH 8.0, 50 mM KCl, 2 mM DTT, 0.5 mM EDTA, 0.1 mg/ml BSA, 0.1 mg/ml heparin, room temperature; recombinant protein; protein details: N-terminal His

Q: How did the binding signal (% maximum reduction of binding) (GAPDH (Homo sapiens) [1]) turn out when “GUGAUUAUUUAUUAUUUAUUUAUUAUUUAUUUAUUUAG [TNFα-ARE38]” was run?
A: 30

Q: Does UGGCCAAUGCCCUGGCUCACAAAUACCACUG [Rβ31] bind (GAPDH (Homo sapiens) [2])?
A: binds more weakly

The exact form of at least one protein or probe is not confirmed. For some assays here: The comparison behind a weaker result is the experiment's own reference, which may not be listed here.
